In publication PMC8572007:
These are yes or no findings as the source states them, for the method shown. Binding seen in cells or lysates may run through a third protein. Binding calls can cover weak binding; strength is not graded here.

Molecular target: Taxol-induced microtubules (MTs) (Drosophila (endogenous in wild-type larval brains and body walls))
Test: co-sedimentation; MT cosedimentation from homogenates of 50 wild-type larval brains or 25 larval body walls in BRB80 (80 mM PIPES pH 7.8, 1 mM EGTA, 1 mM MgCl2, 0.1% NP-40); clarified at 100,000 g, 4°C; 1 mM GTP and DTT, then 20 µM Taxol at 30°C for 30 min; spun through a 10% sucrose cushion at 180,000 g, 25-30°C; pellet analysed by western blot

B1: Rae1 (protein, UniProt Q9W2E7 1-346)
chain: MFGATQSTNRMNDFEVASPPDDSVSALEFSPSTVQKNFLVAGSWDSTVRCWEVEQNGATVPKSMKTMGGPVLDVCWSDDGSKVFVASCDKQVKLWDLASDQVMQVAAHDGPVKTCHMVKGPTYTCLMTGSWDKTLKFWDTRSPNPMMTINLPERCYCADVEYPMAVVGTANRGLIIYSLQNSPTEYKRQESPLKYQHRAISIFRDKKKEPTGCALGSIEGRVAIQYVNPGNPKDNFTFKCHRTTGTSGYQDIYAVNDIAFHPVHGTLVTVGSDGTFSFWDKDARTKLKSSETMDQSITKCGFNANGQIFAYAVGYDWSKGHEYFNPAKKPQIFLRSCYDELKPRIN
How did the binding turn out when B1 was run?
The binding was “binds”.
